From the supplement of paper PMC10849652
The list shows a part of the results.

The chains behind the UniProt entries cited, without tags or fusion partners. Where a name states a change or a piece, a line headed by the entry shows the natural chain unless it says otherwise.
UniProt Q8IXU6: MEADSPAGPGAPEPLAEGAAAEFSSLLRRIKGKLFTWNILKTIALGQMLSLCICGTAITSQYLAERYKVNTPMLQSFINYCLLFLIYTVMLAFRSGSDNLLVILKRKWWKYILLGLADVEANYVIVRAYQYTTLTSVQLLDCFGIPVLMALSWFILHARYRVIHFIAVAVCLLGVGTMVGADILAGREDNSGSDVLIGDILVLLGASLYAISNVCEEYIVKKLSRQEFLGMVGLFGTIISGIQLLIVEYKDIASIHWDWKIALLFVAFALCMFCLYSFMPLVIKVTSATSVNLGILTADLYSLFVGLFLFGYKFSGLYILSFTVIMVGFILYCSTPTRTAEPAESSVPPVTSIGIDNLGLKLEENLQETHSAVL
UniProt O60779: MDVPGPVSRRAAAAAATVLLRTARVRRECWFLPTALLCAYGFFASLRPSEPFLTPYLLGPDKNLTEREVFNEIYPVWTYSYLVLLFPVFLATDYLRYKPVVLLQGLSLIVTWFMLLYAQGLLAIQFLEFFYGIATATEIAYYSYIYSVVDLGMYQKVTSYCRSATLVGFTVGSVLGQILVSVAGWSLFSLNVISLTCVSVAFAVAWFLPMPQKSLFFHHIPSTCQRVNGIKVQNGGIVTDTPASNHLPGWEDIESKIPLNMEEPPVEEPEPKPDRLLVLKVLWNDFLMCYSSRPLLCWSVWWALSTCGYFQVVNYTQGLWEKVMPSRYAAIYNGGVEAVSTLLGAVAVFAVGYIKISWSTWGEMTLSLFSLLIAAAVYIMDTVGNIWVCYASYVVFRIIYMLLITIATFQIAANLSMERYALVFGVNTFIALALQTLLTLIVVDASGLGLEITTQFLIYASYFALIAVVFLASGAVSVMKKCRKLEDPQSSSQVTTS
UniProt O43826: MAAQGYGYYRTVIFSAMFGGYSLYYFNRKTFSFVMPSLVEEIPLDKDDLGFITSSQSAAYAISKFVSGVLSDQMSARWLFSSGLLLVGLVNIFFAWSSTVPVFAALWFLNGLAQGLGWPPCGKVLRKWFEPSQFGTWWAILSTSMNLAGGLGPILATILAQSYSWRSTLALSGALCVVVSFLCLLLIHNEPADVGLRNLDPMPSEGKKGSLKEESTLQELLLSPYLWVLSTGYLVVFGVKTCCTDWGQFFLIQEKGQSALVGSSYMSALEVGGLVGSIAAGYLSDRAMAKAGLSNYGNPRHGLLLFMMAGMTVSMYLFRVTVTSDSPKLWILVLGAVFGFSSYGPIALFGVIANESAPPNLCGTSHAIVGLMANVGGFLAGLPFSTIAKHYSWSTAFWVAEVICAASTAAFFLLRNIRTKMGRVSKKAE
UniProt Q13433: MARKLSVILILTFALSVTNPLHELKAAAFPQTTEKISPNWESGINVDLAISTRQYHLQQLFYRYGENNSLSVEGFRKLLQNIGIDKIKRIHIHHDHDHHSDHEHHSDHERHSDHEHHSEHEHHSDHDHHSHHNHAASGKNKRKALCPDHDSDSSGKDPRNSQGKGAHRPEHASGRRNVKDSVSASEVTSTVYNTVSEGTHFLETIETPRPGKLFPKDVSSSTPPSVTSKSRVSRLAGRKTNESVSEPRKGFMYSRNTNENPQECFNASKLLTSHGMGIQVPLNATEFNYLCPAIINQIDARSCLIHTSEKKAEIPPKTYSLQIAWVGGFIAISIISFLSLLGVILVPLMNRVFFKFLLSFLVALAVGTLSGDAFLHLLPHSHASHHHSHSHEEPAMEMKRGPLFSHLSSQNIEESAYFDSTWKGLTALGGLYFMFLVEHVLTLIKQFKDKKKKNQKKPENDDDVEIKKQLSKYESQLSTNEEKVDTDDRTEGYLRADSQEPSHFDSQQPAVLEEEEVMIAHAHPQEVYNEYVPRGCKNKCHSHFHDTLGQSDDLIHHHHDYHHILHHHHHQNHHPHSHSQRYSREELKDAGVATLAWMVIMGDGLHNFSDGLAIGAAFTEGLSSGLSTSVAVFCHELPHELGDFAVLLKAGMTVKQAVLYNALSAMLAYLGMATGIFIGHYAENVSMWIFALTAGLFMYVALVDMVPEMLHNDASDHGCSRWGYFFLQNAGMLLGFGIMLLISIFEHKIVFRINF
UniProt P53985: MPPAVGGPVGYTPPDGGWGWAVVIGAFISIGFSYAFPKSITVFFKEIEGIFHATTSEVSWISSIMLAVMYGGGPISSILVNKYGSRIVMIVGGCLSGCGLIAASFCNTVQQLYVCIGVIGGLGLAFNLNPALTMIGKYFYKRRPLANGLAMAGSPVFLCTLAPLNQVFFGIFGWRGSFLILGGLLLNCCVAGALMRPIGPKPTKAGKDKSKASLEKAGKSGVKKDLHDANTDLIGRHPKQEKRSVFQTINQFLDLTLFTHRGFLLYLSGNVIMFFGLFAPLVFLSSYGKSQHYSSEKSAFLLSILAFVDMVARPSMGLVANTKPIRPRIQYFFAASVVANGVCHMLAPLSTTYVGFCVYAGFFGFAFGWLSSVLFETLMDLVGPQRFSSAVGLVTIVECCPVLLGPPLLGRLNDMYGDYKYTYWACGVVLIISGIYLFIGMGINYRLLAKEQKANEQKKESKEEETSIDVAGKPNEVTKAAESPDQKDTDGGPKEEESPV
UniProt O75746: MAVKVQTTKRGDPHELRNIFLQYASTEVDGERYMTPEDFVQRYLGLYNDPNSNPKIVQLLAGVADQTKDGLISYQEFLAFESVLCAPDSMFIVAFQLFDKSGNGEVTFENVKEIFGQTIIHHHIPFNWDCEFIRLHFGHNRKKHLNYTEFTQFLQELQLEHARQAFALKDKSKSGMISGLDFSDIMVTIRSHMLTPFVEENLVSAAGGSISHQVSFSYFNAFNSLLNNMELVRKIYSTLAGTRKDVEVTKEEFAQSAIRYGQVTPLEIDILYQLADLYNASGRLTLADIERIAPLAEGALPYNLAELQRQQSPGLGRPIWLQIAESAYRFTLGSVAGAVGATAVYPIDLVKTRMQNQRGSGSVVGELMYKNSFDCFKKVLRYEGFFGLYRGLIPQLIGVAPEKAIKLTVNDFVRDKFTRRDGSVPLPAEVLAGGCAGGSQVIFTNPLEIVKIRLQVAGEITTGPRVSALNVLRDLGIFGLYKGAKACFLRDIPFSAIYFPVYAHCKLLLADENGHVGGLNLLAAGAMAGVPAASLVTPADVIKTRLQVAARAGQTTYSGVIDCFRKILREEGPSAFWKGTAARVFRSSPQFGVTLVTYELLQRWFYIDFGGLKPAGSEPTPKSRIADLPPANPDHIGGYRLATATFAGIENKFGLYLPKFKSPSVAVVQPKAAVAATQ
UniProt P16260: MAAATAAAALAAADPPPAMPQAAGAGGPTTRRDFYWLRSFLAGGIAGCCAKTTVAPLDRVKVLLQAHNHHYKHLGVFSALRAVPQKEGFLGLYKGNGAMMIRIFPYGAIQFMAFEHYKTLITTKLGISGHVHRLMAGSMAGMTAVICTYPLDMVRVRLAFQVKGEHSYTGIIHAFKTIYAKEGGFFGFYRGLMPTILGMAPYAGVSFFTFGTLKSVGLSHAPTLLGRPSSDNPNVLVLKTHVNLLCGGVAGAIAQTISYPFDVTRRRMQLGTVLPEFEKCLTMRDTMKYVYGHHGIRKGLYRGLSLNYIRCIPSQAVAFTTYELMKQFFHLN
UniProt Q9Y6M5: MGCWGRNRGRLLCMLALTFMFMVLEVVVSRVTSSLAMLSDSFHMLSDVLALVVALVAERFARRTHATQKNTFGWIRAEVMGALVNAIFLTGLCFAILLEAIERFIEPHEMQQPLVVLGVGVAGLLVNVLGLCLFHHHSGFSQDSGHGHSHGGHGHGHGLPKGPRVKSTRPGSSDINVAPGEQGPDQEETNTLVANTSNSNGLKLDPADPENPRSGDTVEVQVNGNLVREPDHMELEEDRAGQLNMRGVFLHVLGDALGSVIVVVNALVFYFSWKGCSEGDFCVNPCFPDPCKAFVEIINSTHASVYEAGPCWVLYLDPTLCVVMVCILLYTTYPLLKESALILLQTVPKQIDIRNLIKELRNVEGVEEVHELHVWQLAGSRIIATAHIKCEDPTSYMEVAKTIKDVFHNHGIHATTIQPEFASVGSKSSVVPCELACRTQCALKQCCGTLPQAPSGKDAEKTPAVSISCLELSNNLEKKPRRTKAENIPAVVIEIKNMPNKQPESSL
UniProt Q9BRY0: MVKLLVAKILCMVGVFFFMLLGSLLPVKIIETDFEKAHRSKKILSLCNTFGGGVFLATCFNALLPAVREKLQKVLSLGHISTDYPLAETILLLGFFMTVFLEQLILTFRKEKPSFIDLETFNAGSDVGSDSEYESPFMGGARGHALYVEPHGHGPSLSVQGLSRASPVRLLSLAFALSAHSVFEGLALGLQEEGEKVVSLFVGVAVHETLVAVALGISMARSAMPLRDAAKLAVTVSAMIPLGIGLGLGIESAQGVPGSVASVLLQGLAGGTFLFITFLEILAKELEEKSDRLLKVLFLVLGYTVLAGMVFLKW
UniProt Q8N1S5: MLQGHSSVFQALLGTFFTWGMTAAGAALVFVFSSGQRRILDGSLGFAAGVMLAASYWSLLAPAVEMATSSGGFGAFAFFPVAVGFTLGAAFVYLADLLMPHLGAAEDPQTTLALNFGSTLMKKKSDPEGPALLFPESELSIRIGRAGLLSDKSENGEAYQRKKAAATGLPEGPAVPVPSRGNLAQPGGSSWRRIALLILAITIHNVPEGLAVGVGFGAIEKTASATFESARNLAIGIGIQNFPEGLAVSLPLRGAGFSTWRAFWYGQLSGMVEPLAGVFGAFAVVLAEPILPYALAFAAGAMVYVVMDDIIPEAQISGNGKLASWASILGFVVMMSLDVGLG
UniProt Q6P1M0: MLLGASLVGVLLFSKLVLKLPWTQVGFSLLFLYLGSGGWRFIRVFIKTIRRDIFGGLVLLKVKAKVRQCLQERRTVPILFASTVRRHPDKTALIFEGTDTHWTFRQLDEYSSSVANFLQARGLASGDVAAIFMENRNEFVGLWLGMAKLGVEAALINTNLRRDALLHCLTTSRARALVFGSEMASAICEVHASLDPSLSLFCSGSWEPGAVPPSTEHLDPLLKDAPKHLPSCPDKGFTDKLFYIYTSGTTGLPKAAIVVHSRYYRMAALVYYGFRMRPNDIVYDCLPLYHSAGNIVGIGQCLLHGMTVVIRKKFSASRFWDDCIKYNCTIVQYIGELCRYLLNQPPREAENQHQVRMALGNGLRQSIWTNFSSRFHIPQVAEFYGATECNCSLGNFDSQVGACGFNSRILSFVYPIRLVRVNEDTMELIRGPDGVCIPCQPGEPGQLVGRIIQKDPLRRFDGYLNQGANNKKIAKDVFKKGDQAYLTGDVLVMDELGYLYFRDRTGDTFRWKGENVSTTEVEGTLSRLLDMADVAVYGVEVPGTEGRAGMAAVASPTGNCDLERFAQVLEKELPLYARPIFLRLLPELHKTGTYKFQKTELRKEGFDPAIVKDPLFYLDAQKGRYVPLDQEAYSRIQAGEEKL
UniProt Q9BXP2: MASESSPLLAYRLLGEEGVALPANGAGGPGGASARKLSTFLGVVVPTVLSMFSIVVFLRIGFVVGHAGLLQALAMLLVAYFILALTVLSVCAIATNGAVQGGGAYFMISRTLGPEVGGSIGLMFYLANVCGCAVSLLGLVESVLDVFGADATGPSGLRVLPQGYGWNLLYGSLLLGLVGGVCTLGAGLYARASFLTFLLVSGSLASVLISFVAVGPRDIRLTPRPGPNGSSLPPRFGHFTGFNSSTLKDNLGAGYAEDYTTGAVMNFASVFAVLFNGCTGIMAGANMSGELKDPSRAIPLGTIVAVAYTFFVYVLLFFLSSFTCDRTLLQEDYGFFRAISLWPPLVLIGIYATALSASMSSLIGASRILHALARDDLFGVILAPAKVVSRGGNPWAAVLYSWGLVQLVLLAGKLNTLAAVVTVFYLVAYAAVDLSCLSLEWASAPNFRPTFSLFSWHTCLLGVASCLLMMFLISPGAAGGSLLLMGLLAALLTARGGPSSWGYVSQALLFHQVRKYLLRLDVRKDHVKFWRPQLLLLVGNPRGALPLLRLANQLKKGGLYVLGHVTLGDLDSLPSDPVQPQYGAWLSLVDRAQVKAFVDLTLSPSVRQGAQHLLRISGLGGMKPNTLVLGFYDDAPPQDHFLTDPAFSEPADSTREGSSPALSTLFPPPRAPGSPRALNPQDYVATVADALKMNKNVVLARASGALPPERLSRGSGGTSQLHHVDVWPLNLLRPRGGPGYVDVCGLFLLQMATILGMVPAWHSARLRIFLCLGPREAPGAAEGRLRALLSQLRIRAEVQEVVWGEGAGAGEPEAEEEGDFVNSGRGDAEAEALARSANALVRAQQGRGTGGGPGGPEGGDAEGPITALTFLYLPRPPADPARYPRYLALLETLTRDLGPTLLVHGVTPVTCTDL
UniProt Q96CQ1: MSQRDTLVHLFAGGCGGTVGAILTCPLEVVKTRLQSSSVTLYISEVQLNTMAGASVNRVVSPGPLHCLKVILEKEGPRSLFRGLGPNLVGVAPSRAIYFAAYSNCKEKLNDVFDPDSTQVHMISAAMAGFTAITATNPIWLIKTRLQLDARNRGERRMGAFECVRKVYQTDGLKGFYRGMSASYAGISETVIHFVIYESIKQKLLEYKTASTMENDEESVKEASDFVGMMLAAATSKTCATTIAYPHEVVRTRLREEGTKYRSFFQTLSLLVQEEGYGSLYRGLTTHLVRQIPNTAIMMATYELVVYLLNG

Legend:
Assay in all cases: log2 fold change, soluble protein after heating vs DMSO (PISA); higher = thermal stabilisation; K562 cells, 10 uM, 30 min; active = over 0.2 and 3.5 SD of the protein, either way, in both replicates (recomputed)
[1] = compound: CC[C@@H]1C(=O)N(C)c2cnc(Nc3ccc(C(=O)NC4CCN(C)CC4)cc3OC)nc2N1C1CCCC1
How it was run: (§1)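 K562 cells at 2×10^6 cells/mL were treated for 30 min with 10 μM compound, and aliquots were heated for 3 min over 48°C-58°C before pooling. Extraction used PBS with 0.5% NP-40 at 4°C, and soluble protein was the supernatant after 21,000xg for 90 min, measured by TMTpro 16plex LC-MS/MS with channel sums equalised. Thermal stability values, relative to control samples and from duplicates, are log2 fold changes.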

volasertib = compound: CC[C@@H]1C(=O)N(C)c2cnc(Nc3ccc(C(=O)N[C@H]4CC[C@H](N5CCN(CC6CC6)CC5)CC4)cc3OC)nc2N1C(C)C [volasertib]
How it was run: as §1

[2] = compound: CC[C@H](C)N1C=C(C2=C(C=C(C=C21)C3=CN=C(C=C3)N4CCNCC4)C(=O)NCC5=C(C=C(NC5=O)C)C)C
How it was run: as §1

epoxomicin = compound: CC[C@H](C)[C@@H](C(=O)N[C@@H]([C@@H](C)O)C(=O)N[C@@H](CC(C)C)C(=O)[C@]1(CO1)C)NC(=O)[C@H]([C@@H](C)CC)N(C)C(=O)C [epoxomicin]
How it was run: as §1

[3] = compound: CCn1c(C(=O)N(C2CC2)C2CC2)cc2c3c(ncn3C)c(Nc3cc(C)n(C)n3)nc21
How it was run: as §1

[4] = compound: CCn1cc(-c2ccnc3[nH]c(-c4cccc(CN(C)C)c4)cc23)c(-c2ccc(NC(=O)N(C)C)cc2)n1
How it was run: as §1

[5] = compound: CN(C)CC(=O)Nc1ccc2[nH]c(=O)c3ccccc3c2c1
How it was run: as §1

rosiglitazone = compound: CN(CCOC1=CC=C(C=C1)C[C@H]2C(=O)NC(=O)S2)C3=CC=CC=N3 (racemic) [rosiglitazone]
How it was run: as §1

[6] = compound: CN1C2=C(C3=C1C(=O)N(N=C3)CC4=CC(=CC=C4)N)SC(=C2)S(=O)C
How it was run: as §1

[7] = compound: CN1CCC(CNc2ccc3ncc(-c4cccc(OC(F)(F)F)c4)n3n2)CC1
How it was run: as §1

saracatinib = compound: CN1CCN(CCOc2cc(OC3CCOCC3)c3c(Nc4c(Cl)ccc5c4OCO5)ncnc3c2)CC1 [saracatinib]
How it was run: as §1

sotrastaurin = compound: CN1CCN(c2nc(C3=C(c4c[nH]c5ccccc45)C(=O)NC3=O)c3ccccc3n2)CC1 [sotrastaurin]
How it was run: as §1

alvocidib = compound: CN1CC[C@H](c2c(O)cc(O)c3c(=O)cc(-c4ccccc4Cl)oc23)[C@H](O)C1 [alvocidib]
How it was run: as §1

Tubastatin A = compound: CN1CCc2c(c3ccccc3n2Cc2ccc(C(=O)NO)cc2)C1 [Tubastatin A]
How it was run: as §1

[8] = compound: CNC(=O)C1=CC=CC=C1NC2=NC(=NC=C2Cl)NC3=C(C=C(C=C3)N4CCOCC4)OC
How it was run: as §1

defactinib = compound: CNC(=O)c1ccc(Nc2ncc(C(F)(F)F)c(NCc3nccnc3N(C)S(C)(=O)=O)n2)cc1 [defactinib]
How it was run: as §1

rucaparib = compound: CNCc1ccc(-c2[nH]c3cc(F)cc4c3c2CCNC4=O)cc1 [rucaparib]
How it was run: as §1

[9] = compound: CNc1nc(-c2ccc3c(N)n[nH]c3c2)cc(N2C[C@@H](C(=O)NC3CCCCC3)CC[C@H]2C)n1
How it was run: as §1

encorafenib = compound: COC(=O)N[C@@H](C)CNc1nccc(-c2cn(C(C)C)nc2-c2cc(Cl)cc(NS(C)(=O)=O)c2F)n1 [encorafenib]
How it was run: as §1

[10] = compound: COC(=O)[C@H](CCSC)NC(=O)C1=C(C=C(C=C1)NC[C@H](CS)N)C2=CC=CC=C2
How it was run: as §1

| Target | log2 fold change [1] | log2 fold change (volasertib) | log2 fold change [2] | log2 fold change (epoxomicin) | log2 fold change [3] | log2 fold change [4] | log2 fold change [5] | log2 fold change (rosiglitazone) | log2 fold change [6] | log2 fold change [7] | log2 fold change (saracatinib) | log2 fold change (sotrastaurin) | log2 fold change (alvocidib) | log2 fold change (Tubastatin A) | log2 fold change [8] | log2 fold change (defactinib) | log2 fold change (rucaparib) | log2 fold change [9] | log2 fold change (encorafenib) | log2 fold change [10] |
| --- | --- | --- | --- | --- | --- | --- | --- | --- | --- | --- | --- | --- | --- | --- | --- | --- | --- | --- | --- | --- |
| SLC35F2 (UniProt Q8IXU6) | inactive: 0.059 | inactive: 0.024 | inactive: -0.006 | inactive: -0.088 | inactive: 0.023 | inactive: -0.003 | inactive: 0.041 | inactive: -0.026 | inactive: -0.003 | inactive: 0.107 | inactive: 0.172 | inactive: 0.075 | inactive: -0.02 | inactive: -0.005 | inactive: -0.031 | inactive: -0.018 | inactive: 0.011 | inactive: -0.032 | inactive: -0.013 | inactive: -0.02 |
| SLC38A1 (UniProt Q9H2H9) | inactive: 0.145 | inactive: 0.005 | inactive: -0.097 | inactive: 0.014 | inactive: 0.024 | inactive: 0.036 | inactive: -0.02 | inactive: 0.019 | inactive: -0.049 | inactive: 0.1 | inactive: 0.065 | inactive: 0.068 | inactive: -0.035 | inactive: -0.073 | inactive: -0.018 | inactive: -0.021 | inactive: -0.141 | inactive: -0.007 | inactive: 0.116 | inactive: 0.054 |
| SLC19A2 (UniProt O60779) | inactive: -0.068 | inactive: -0.316 | inactive: -0.05 | inactive: -0.377 | inactive: 0.179 | – | inactive: 0.095 | – | inactive: 0 | – | inactive: 0.163 | inactive: -0.179 | inactive: 0.003 | inactive: 0.078 | inactive: -0.269 | inactive: -0.096 | inactive: 0.014 | inactive: -0.061 | inactive: 0.168 | inactive: -0.083 |
| SLC37A4 isoform 2 (UniProt O43826) | inactive: 0.041 | inactive: -0.048 | inactive: -0.04 | inactive: -0.029 | inactive: 0.002 | inactive: 0.022 | inactive: 0.058 | inactive: -0.063 | inactive: -0.023 | inactive: 0.008 | inactive: 0.12 | inactive: 0.004 | inactive: 0.078 | inactive: -0.017 | inactive: -0.016 | inactive: -0.029 | inactive: -0.047 | inactive: -0.053 | inactive: 0.008 | inactive: 0.05 |
| SLC3A2 isoform 3 (UniProt P08195) | inactive: 0.024 | inactive: -0.033 | inactive: -0.028 | inactive: 0.026 | inactive: 0.016 | inactive: -0.044 | inactive: -0.011 | inactive: -0.017 | inactive: -0.113 | inactive: 0.218 | inactive: 0.009 | inactive: 0.033 | inactive: -0.049 | inactive: -0.005 | inactive: -0.042 | inactive: -0.042 | inactive: 0.017 | inactive: 0.063 | inactive: -0.003 | inactive: 0.017 |
| SLC39A6 (UniProt Q13433) | inactive: 0.134 | inactive: 0.019 | inactive: 0.005 | inactive: 0.011 | inactive: 0 | inactive: -0.088 | inactive: 0.035 | inactive: 0.064 | inactive: 0.122 | inactive: 0.137 | inactive: -0.104 | inactive: 0.089 | inactive: 0.02 | inactive: 0.033 | inactive: -0.029 | inactive: -0.034 | inactive: 0.046 | inactive: 0 | inactive: 0.022 | inactive: 0.017 |
| SLC16A1 (UniProt P53985) | inactive: 0.05 | inactive: -0.007 | inactive: -0.053 | inactive: -0.104 | inactive: 0.069 | inactive: -0.017 | inactive: 0.011 | inactive: 0.02 | inactive: -0.108 | inactive: 0.163 | inactive: -0.003 | inactive: 0.094 | inactive: 0.032 | inactive: 0.005 | inactive: -0.027 | inactive: -0.025 | inactive: -0.146 | inactive: 0.034 | inactive: 0.003 | inactive: 0.035 |
| SLC11A2 isoform 3 (UniProt P49281) | inactive: 0.062 | inactive: -0.088 | inactive: -0.121 | inactive: -0.054 | inactive: 0.071 | – | inactive: -0.022 | inactive: -0.007 | inactive: -0.06 | – | inactive: -0.04 | inactive: 0.04 | inactive: 0.01 | inactive: -0.023 | inactive: 0.041 | inactive: -0.085 | inactive: -0.193 | inactive: -0.084 | inactive: 0.091 | inactive: -0.006 |
| SLC25A12 (UniProt O75746) | inactive: 0.011 | inactive: 0.033 | inactive: -0.034 | inactive: -0.004 | inactive: 0.011 | inactive: 0.001 | inactive: -0.027 | inactive: 0.003 | inactive: -0.022 | inactive: 0.003 | inactive: 0.048 | inactive: 0.058 | inactive: 0.004 | inactive: -0.029 | inactive: -0.006 | inactive: -0.004 | inactive: -0.05 | inactive: -0.011 | inactive: -0.021 | inactive: -0.003 |
| SLC25A16 (UniProt P16260) | inactive: 0.015 | inactive: 0.095 | inactive: -0.019 | inactive: -0.047 | inactive: 0.049 | inactive: -0.064 | inactive: -0.026 | inactive: -0.014 | inactive: -0.059 | inactive: -0.143 | inactive: 0.071 | inactive: 0.082 | inactive: -0.116 | inactive: 0.092 | inactive: -0.082 | inactive: 0 | inactive: 0.06 | inactive: -0.041 | inactive: 0.009 | inactive: 0.053 |
| SLC30A1 (UniProt Q9Y6M5) | inactive: 0.041 | inactive: 0.081 | inactive: -0.037 | inactive: -0.042 | inactive: 0.006 | inactive: -0.034 | inactive: -0.004 | inactive: -0.026 | inactive: -0.054 | inactive: 0.149 | inactive: 0.062 | inactive: -0.025 | inactive: -0.022 | inactive: -0.025 | inactive: -0.024 | inactive: -0.029 | inactive: -0.004 | inactive: -0.021 | inactive: -0.016 | inactive: 0.025 |
| SLC39A3 (UniProt Q9BRY0) | inactive: 0.082 | inactive: -0.015 | inactive: -0.095 | inactive: -0.099 | inactive: 0.114 | inactive: 0.073 | inactive: 0.058 | inactive: 0.043 | inactive: -0.017 | inactive: 0.056 | inactive: 0.018 | inactive: -0.003 | inactive: 0.015 | inactive: -0.035 | inactive: 0.108 | inactive: -0.054 | inactive: -0.088 | inactive: -0.083 | inactive: 0.018 | inactive: 0.019 |
| SLC39A11 (UniProt Q8N1S5) | inactive: 0.102 | inactive: 0.071 | inactive: 0.007 | – | – | inactive: -0.136 | inactive: -0.062 | – | inactive: -0.021 | inactive: 0.15 | inactive: 0.098 | inactive: 0.127 | – | inactive: -0.164 | inactive: -0.223 | inactive: 0.074 | active: -0.518 | inactive: -0.015 | inactive: -0.077 | inactive: -0.082 |
| SLC38A2 (UniProt Q96QD8) | inactive: 0.035 | inactive: 0.004 | inactive: -0.091 | inactive: -0.078 | – | – | inactive: -0.022 | – | inactive: -0.1 | – | inactive: -0.007 | inactive: 0.027 | – | inactive: -0.043 | inactive: 0.004 | inactive: -0.034 | inactive: -0.044 | inactive: -0.188 | inactive: 0.045 | inactive: -0.024 |
| SLC27A4 (UniProt Q6P1M0) | inactive: -0.048 | active: -0.473 | inactive: 0.03 | inactive: -0.064 | – | inactive: -0.036 | inactive: 0.04 | – | inactive: -0.051 | inactive: -0.158 | inactive: -0.035 | inactive: 0.035 | – | inactive: -0.005 | inactive: -0.083 | inactive: -0.084 | inactive: 0.06 | inactive: 0.072 | inactive: 0.018 | inactive: -0.05 |
| SLC12A9 (UniProt Q9BXP2) | inactive: 0.014 | inactive: -0.034 | inactive: -0.016 | inactive: 0.059 | – | inactive: -0.016 | inactive: -0.02 | – | inactive: -0.075 | inactive: -0.136 | inactive: 0.102 | inactive: 0.016 | – | inactive: -0.09 | inactive: -0.016 | inactive: -0.043 | inactive: -0.073 | inactive: -0.068 | inactive: -0.017 | inactive: -0.01 |
| SLC25A36 (UniProt Q96CQ1) | inactive: -0.133 | inactive: 0.059 | inactive: 0.045 | inactive: 0.026 | – | inactive: -0.135 | inactive: -0.217 | – | inactive: 0.02 | inactive: 0.046 | inactive: 0.233 | inactive: -0.057 | – | inactive: -0.027 | inactive: 0.013 | inactive: 0.011 | inactive: 0.066 | inactive: 0.016 | inactive: -0.055 | inactive: 0.162 |

Fetched one by one from above, two records:

| Target | log2 fold change [1] | log2 fold change (volasertib) | log2 fold change [2] | log2 fold change (epoxomicin) | log2 fold change [3] | log2 fold change [4] | log2 fold change [5] | log2 fold change (rosiglitazone) | log2 fold change [6] | log2 fold change [7] | log2 fold change (saracatinib) | log2 fold change (sotrastaurin) | log2 fold change (alvocidib) | log2 fold change (Tubastatin A) | log2 fold change [8] | log2 fold change (defactinib) | log2 fold change (rucaparib) | log2 fold change [9] | log2 fold change (encorafenib) | log2 fold change [10] |
| --- | --- | --- | --- | --- | --- | --- | --- | --- | --- | --- | --- | --- | --- | --- | --- | --- | --- | --- | --- | --- |
| SLC30A1 (UniProt Q9Y6M5) | inactive: 0.041 | inactive: 0.081 | inactive: -0.037 | inactive: -0.042 | inactive: 0.006 | inactive: -0.034 | inactive: -0.004 | inactive: -0.026 | inactive: -0.054 | inactive: 0.149 | inactive: 0.062 | inactive: -0.025 | inactive: -0.022 | inactive: -0.025 | inactive: -0.024 | inactive: -0.029 | inactive: -0.004 | inactive: -0.021 | inactive: -0.016 | inactive: 0.025 |
| SLC38A1 (UniProt Q9H2H9) | inactive: 0.145 | inactive: 0.005 | inactive: -0.097 | inactive: 0.014 | inactive: 0.024 | inactive: 0.036 | inactive: -0.02 | inactive: 0.019 | inactive: -0.049 | inactive: 0.1 | inactive: 0.065 | inactive: 0.068 | inactive: -0.035 | inactive: -0.073 | inactive: -0.018 | inactive: -0.021 | inactive: -0.141 | inactive: -0.007 | inactive: 0.116 | inactive: 0.054 |
